The target of assay [1] is T1, Asparagine endopeptidase (AEP) (mouse (endogenous in MEFs)) (UniProt O89017).
T1 sequence: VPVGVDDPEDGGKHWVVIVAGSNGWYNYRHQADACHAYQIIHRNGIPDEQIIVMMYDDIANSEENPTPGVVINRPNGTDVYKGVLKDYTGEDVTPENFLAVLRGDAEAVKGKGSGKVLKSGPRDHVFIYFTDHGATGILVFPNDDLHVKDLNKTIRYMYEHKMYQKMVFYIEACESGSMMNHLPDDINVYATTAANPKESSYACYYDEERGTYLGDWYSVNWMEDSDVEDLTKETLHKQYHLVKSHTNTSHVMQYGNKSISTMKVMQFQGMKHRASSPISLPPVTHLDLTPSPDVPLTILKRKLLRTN
Put plainly: affinity purification with mass spectrometry; AEP immunoprecipitated from MEFs (IgG as control), silver-stained gel, bands excised, in-gel trypsin digestion, MS.

Chains of the proteins cited; added tags and fusions are not shown.
UniProt Q9JKF1: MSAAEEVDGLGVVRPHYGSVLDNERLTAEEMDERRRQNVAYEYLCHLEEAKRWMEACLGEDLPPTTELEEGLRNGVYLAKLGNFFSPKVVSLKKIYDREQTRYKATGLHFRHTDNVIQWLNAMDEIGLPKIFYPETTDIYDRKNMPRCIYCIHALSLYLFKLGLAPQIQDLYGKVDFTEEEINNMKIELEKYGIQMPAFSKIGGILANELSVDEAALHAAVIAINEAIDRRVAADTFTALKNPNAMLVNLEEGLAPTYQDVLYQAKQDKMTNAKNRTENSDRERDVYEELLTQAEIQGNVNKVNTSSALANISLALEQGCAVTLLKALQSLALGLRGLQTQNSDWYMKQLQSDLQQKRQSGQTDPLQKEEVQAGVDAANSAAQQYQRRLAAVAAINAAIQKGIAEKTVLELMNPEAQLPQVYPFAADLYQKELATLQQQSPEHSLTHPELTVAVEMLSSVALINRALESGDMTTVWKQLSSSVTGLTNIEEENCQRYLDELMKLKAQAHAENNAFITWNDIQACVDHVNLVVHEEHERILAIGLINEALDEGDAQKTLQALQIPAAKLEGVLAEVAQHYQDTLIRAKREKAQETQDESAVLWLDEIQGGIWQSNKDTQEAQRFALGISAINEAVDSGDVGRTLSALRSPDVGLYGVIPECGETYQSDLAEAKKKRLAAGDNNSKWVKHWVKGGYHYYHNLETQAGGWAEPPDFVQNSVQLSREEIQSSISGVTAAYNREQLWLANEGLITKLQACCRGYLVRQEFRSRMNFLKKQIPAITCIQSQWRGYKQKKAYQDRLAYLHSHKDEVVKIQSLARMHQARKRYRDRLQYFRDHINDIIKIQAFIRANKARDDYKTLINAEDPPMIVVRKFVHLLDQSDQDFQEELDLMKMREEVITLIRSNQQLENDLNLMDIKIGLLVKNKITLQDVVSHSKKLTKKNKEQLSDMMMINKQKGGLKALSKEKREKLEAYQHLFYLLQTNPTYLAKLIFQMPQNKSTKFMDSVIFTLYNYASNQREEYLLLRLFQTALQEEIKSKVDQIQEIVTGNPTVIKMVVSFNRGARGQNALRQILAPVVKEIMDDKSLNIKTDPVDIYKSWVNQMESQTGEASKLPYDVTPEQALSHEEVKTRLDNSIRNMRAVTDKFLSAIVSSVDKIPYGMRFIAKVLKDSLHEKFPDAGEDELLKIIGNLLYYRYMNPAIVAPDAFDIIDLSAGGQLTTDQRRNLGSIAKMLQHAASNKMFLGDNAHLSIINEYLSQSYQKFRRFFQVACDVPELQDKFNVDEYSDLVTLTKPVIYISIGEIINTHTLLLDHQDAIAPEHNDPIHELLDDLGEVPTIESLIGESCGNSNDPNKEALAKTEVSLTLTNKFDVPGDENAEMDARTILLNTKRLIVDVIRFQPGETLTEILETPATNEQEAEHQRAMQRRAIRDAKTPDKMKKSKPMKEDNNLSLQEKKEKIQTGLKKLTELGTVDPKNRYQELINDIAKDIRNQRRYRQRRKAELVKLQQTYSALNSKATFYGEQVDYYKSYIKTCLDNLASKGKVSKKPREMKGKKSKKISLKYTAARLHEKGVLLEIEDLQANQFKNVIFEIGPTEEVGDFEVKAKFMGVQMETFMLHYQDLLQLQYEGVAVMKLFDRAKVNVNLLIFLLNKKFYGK
UniProt Q60598: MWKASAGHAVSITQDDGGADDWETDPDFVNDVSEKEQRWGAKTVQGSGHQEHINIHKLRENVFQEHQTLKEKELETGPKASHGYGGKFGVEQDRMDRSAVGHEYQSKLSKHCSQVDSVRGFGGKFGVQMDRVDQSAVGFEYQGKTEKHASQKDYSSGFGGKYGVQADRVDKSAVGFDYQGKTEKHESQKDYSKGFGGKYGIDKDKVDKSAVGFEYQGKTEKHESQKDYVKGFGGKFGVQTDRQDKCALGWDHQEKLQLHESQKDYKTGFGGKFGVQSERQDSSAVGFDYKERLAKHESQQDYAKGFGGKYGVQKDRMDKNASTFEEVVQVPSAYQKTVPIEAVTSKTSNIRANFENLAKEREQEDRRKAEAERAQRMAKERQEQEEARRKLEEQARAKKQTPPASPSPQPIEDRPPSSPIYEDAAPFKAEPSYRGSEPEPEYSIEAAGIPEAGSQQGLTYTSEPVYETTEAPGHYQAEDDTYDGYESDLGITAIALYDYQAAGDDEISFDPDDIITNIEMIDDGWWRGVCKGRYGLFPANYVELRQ
UniProt Q7KZF4: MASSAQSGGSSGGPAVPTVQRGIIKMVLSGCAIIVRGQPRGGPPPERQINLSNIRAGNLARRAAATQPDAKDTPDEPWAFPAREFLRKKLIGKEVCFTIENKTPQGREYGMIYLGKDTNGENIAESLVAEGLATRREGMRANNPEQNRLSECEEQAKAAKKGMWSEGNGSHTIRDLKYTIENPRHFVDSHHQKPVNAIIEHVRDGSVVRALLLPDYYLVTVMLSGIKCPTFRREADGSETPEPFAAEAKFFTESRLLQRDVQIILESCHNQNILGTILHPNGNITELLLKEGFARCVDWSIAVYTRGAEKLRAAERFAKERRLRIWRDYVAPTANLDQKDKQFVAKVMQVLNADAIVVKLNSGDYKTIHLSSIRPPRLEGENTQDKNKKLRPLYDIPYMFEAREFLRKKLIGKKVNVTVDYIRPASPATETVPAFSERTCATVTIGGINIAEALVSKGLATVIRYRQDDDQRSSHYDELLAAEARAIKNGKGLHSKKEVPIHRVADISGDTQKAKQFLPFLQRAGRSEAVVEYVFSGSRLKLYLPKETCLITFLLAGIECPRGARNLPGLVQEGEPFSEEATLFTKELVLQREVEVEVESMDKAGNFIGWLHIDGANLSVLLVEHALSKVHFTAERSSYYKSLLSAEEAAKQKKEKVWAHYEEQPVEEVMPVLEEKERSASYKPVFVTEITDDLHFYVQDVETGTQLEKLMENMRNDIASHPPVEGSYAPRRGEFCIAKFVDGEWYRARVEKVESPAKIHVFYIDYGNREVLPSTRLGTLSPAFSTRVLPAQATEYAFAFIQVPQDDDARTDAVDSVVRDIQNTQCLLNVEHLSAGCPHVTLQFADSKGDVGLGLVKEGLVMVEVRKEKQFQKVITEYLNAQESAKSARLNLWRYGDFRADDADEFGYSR

The next assay addresses T2, ZsGreen1-tagged tTmod3-C (UniProt Q9NYL9).
T2 sequence: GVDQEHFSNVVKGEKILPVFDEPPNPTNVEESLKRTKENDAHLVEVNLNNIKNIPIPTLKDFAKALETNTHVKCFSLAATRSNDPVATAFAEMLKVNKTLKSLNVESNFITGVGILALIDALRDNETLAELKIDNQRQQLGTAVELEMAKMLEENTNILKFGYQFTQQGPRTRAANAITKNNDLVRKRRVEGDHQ
Kind of assay: affinity purification with mass spectrometry; ZsGreen1-tagged tTmod3-C immunoprecipitated (IgG as control) from nuclear fractions of U87-MG cells with AEP KD and tTmod3-C rescue, silver-stained gel, MS.

Results are given in words; binding and its absence hold for the method and conditions named. Binding seen in cells or lysates may run through a third protein. A yes stands for co-enrichment or nearness to the bait. Other partners may have been found. For some of these results: Sequences can lack the tags named with a protein.

Consider “IQ Motif Containing GTPase Activating Protein 1 (IQGAP1) (from UniProt Q9JKF1 1-1657)”, for which the binding result in assay [1] is recorded as “binds”.

Regarding Cortactin (from UniProt Q60598 1-546), the binding entry in assay [1] is on record as “binds”.

Turning to “Staphylococcal Nuclease And Tudor Domain Containing 1 (SND1) (from UniProt Q7KZF4 1-910)”, the binding entry in the assay with ZsGreen1-tagged tTmod3-C is reported as “binds”.

B1: Tropomodulin-3 (Tmod3) (protein, UniProt Q9JHJ0 1-352)
chain: MALPFRKDLGDYKDLDEDELLGKLSESELKQLETVLDDLDPENALLPAGFRQKNQTSKSATGPFDRERLLSYLEKQALEHKDRDDYVPYTGEKKGKIFIPKQKPAQTLTEETISLDPELEEALTSASDTELCDLAAILGMHNLIADTPFCDVLGSSNGVNQERFPNVVKGEKILPVFDEPPNPTNVEESLKRIRENDARLVEVNLNNIKNIPIPTLKDFAKTLEANTHVKHFSLAATRSNDPVAVAFADMLKVNKTLKSLNMESNFITGAGVLALIDALRDNETLMELKIDNQRQQLGTSVELEMAKMLEENTNILKFGYQFTQQGPRTRAANAITKNNDLVRKRRIEGDHQ
With B1, the binding result in assay [1] is given as “binds”.

These data come from PMC9238189.
